# The supplement of paper PMC6411743
# Chains of the proteins cited; added tags and fusions are not shown. Lines headed by an entry give the natural chain unless they say otherwise; changes in a name come on top.
# UniProt Q96PE7: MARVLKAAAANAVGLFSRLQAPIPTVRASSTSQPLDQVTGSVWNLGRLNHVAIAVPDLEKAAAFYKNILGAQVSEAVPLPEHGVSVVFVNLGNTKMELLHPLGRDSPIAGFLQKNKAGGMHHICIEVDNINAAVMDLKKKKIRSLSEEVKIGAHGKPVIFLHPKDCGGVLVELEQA
# UniProt Q96BY6: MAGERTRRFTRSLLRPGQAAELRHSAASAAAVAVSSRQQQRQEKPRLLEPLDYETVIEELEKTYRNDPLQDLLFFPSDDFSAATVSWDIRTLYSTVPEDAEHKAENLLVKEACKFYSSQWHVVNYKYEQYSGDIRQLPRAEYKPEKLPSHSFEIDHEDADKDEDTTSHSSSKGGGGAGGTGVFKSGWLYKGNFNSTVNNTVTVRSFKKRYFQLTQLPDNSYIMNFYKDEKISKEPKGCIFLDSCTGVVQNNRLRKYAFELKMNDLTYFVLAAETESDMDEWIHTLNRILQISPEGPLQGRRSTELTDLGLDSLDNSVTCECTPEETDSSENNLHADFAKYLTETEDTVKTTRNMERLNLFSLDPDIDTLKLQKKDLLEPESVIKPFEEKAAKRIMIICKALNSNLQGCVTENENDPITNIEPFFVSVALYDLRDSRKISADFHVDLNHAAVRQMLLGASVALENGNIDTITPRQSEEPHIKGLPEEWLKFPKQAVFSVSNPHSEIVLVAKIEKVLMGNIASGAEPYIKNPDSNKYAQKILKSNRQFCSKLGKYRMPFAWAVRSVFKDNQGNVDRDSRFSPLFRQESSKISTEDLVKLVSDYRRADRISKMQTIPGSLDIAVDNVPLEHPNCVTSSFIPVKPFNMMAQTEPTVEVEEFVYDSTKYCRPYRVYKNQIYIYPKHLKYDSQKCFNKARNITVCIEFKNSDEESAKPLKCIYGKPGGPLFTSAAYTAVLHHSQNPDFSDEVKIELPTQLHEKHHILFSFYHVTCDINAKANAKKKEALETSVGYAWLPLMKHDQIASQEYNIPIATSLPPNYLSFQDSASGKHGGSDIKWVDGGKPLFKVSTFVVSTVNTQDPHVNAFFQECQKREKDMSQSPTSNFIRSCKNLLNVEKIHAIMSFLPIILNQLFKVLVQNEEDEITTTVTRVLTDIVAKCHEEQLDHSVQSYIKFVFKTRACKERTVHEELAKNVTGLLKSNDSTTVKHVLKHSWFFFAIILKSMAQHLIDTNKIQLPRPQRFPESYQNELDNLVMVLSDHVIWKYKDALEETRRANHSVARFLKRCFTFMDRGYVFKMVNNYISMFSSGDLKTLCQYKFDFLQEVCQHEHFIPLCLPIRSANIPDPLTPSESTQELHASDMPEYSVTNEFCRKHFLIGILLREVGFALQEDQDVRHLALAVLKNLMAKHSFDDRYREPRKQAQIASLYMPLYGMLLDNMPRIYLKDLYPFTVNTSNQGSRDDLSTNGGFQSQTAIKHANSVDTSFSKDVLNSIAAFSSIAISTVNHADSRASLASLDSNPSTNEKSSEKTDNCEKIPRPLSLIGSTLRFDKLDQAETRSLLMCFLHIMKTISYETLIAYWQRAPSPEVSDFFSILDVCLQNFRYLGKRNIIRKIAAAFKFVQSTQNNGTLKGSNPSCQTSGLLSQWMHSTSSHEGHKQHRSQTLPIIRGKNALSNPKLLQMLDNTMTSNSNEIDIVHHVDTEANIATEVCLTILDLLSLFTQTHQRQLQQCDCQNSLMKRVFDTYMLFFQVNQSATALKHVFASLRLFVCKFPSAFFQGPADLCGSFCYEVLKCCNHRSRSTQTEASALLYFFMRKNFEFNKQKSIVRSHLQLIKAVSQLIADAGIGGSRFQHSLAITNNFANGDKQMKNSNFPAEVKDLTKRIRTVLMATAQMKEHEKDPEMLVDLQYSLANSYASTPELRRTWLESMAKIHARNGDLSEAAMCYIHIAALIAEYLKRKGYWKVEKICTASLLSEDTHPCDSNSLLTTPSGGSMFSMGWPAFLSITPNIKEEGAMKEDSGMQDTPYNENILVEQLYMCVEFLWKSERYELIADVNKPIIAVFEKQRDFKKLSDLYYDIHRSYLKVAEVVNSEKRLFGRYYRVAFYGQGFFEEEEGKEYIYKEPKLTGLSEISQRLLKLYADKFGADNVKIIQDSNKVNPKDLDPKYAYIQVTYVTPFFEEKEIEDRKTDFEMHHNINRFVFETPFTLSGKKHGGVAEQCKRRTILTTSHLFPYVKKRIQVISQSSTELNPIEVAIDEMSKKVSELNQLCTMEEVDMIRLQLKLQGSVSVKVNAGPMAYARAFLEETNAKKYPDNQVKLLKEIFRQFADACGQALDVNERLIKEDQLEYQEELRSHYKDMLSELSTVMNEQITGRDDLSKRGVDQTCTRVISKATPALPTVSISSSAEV
# UniProt Q96CW5, whole entry: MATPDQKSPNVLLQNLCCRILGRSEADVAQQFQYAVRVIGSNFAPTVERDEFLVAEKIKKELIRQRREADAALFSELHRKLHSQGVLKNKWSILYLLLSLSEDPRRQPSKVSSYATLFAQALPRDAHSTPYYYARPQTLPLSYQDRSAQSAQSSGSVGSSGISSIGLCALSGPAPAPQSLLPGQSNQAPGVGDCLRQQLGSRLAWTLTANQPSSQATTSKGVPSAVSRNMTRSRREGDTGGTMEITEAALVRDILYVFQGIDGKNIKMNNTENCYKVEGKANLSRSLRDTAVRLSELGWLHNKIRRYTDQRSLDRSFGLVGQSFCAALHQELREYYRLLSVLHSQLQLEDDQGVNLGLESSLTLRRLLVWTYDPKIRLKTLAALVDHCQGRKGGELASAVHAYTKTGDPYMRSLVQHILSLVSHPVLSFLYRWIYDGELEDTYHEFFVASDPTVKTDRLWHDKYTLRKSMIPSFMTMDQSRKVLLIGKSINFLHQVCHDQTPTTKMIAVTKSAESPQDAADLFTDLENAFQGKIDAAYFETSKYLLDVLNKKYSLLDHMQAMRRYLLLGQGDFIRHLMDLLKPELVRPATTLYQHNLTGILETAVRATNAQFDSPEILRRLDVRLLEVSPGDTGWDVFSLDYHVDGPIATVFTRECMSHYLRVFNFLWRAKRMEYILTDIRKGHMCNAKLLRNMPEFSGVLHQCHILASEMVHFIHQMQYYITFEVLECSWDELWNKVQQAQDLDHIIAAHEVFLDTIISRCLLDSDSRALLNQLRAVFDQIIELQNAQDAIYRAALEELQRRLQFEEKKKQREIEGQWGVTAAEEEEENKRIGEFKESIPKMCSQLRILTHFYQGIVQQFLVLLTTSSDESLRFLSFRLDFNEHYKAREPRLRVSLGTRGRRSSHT
# UniProt Q96ER9: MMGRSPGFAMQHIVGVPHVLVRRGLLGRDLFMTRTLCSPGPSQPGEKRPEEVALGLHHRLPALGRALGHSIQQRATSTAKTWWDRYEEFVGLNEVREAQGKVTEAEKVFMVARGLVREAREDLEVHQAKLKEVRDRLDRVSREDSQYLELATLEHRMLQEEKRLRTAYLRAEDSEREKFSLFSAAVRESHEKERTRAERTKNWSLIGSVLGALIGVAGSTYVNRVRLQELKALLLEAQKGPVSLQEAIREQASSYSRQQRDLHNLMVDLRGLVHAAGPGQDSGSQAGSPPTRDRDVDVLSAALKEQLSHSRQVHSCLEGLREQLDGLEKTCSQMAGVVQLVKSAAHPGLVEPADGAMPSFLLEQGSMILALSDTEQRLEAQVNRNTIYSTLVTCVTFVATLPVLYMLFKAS
# UniProt Q96AJ9: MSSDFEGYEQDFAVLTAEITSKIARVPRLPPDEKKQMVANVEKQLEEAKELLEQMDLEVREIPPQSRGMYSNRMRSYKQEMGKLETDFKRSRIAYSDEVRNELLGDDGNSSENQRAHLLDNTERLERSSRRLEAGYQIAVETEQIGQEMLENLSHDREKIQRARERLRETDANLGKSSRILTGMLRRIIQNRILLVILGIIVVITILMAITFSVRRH
# UniProt Q969G6: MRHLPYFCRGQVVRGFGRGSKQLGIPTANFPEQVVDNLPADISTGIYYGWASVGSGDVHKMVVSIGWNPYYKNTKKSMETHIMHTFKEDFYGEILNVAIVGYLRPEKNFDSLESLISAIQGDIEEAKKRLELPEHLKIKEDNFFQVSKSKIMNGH
# UniProt Q96D05: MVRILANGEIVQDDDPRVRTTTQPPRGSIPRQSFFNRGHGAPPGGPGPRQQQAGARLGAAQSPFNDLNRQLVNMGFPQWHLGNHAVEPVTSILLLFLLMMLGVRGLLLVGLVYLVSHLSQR
# UniProt Q96CS2: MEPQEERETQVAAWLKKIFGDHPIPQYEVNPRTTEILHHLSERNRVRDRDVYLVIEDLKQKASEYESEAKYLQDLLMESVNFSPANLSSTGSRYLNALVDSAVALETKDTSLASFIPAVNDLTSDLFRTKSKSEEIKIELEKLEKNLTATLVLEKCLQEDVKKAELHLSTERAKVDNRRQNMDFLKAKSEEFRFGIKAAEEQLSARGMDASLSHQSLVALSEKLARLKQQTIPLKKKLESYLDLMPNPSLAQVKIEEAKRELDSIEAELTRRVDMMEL
# UniProt Q92989: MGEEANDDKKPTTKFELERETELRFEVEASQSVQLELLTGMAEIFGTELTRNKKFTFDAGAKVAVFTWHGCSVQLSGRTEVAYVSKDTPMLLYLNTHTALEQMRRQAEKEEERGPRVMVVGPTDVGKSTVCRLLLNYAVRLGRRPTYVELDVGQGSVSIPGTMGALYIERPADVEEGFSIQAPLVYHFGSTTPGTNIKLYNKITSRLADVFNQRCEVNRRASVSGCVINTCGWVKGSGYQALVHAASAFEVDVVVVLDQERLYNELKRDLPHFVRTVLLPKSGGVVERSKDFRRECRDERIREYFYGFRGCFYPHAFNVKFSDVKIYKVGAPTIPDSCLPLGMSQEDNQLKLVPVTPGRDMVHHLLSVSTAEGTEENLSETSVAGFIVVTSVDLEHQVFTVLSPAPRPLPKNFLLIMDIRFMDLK
# UniProt Q96K58: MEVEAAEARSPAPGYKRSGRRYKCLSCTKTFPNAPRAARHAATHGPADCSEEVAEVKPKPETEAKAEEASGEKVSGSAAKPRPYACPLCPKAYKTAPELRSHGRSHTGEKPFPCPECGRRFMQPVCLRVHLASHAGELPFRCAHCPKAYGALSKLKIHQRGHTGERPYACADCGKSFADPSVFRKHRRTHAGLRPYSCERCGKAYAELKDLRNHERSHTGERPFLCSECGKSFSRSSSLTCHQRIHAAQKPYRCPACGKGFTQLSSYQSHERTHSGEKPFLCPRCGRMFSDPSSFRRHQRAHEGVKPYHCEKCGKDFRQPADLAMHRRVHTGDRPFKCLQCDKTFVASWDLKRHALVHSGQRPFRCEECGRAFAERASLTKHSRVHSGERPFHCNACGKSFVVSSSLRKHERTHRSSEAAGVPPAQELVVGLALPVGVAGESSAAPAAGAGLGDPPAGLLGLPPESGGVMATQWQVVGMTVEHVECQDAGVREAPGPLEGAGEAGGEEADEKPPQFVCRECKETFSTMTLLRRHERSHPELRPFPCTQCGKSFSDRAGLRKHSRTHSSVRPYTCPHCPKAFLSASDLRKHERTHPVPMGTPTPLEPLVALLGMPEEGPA
# UniProt Q96G46: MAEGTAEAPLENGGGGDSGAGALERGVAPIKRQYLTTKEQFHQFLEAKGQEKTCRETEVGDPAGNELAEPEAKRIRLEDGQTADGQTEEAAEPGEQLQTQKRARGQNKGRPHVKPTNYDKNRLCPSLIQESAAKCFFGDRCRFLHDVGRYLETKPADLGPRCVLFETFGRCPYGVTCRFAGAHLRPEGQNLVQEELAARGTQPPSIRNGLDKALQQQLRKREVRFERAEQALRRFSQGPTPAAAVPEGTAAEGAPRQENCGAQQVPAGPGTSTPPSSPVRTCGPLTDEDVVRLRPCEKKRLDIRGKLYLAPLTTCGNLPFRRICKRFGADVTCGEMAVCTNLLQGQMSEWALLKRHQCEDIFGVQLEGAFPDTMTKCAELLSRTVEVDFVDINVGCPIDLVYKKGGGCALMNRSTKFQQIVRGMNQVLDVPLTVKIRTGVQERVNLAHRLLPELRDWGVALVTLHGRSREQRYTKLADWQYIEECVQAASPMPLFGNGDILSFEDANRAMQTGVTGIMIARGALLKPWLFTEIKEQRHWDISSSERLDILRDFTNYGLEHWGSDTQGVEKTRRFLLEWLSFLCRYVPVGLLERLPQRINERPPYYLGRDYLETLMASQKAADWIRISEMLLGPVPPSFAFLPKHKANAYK
# UniProt Q969H8: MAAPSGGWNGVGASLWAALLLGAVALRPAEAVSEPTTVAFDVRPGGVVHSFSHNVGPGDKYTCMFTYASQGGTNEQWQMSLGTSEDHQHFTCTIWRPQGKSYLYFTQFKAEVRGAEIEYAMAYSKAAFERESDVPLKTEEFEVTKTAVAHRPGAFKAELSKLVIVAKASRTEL
# UniProt Q96HA8: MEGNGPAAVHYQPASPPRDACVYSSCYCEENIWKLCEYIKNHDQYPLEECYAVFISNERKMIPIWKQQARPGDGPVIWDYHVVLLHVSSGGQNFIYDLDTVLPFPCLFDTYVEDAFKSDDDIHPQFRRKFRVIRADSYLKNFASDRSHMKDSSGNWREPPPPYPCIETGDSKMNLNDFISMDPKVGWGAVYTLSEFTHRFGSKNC
# ± gives the standard deviation of the averaged measurements. The entries are a selection whose mix differs from that of the whole data set.
# Compound: Nc1ncnc2c1ncn2[C@@H]1O[C@H](COP(=O)(O)OP(=O)(O)NP(=O)(O)O)[C@@H](O)[C@H]1O [adenylyl imidodiphosphate]
# Assay: NP40-soluble protein abundance relative to vehicle (solubility fold change) (ratio); higher = more soluble protein in presence of AMP-PNP
# In short: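 Data come from three independent experiments in which Dounce-homogenised Jurkat crude lysate was treated at eight concentrations from 0.1 to 10 mM. Treatment ran 10 min at room temperature and then 3 min at 37 °C, after which 0.8% NP40 and benzonase were added for 60 min at 4 °C before ultracentrifugation. The supernatant underwent TMT labelling and LC-MS/MS, and vsn-normalised intensities were expressed as fold change against the detergent-processed vehicle in each replicate.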
Target,NP40-soluble protein abundance (concentration: 1mM),NP40-soluble protein abundance (concentration: 2mM),NP40-soluble protein abundance (concentration: 4mM),NP40-soluble protein abundance (concentration: 6mM),NP40-soluble protein abundance (concentration: 8mM),NP40-soluble protein abundance (concentration: 10mM)
MUL1 (UniProt Q969V5),1.01 ± 0.016,1.03 ± 0.068,1.04 ± 0.071,1.01 ± 0.042,1.01 ± 0.06,1.03 ± 0.06
MCEE (UniProt Q96PE7),0.998 ± 0.04,1.01 ± 0.04,0.997 ± 0.046,1.06 ± 0.036,1.03 ± 0.08,1.05 ± 0.1
UniProt Q96BY6 and related entries,0.972 ± 0.024,0.935 ± 0.096,1 ± 0.015,0.966 ± 0.021,0.969 ± 0.013,0.945 ± 0.036
UniProt Q96CW5 and related entries,1.04 ± 0.029,1.03 ± 0.047,1.03 ± 0.095,1.05 ± 0.092,1.08 ± 0.13,1.08 ± 0.14
CCDC51 (UniProt Q96ER9),1.03 ± 0.05,1.07 ± 0.023,1.02 ± 0.011,1.01 ± 0.023,0.981 ± 0.02,1.04 ± 0.012
UniProt Q96AJ9 and related entries,1.02 ± 0.049,1.06 ± 0.073,1.01 ± 0.059,0.991 ± 0.038,0.982 ± 0.02,1 ± 0.063
RFK (UniProt Q969G6),1 ± 0.033,0.9725 ± 0.0077,0.953 ± 0.034,0.978 ± 0.021,0.956 ± 0.016,0.935 ± 0.033
VPS35 (UniProt Q96QK1),0.975 ± 0.062,0.92 ± 0.043,0.981 ± 0.054,0.974 ± 0.067,1 ± 0.079,0.96 ± 0.057
UniProt Q96D05 and related entries,0.957 ± 0.027,0.987 ± 0.011,0.972 ± 0.045,0.987 ± 0.044,0.97 ± 0.05,0.972 ± 0.048
UniProt Q96CS2,0.947 ± 0.07,1.04 ± 0.027,0.934 ± 0.079,0.875 ± 0.046,0.884 ± 0.014,0.829 ± 0.043
UniProt Q92989 and related entries,1 ± 0.033,0.979 ± 0.025,1.01 ± 0.016,1.04 ± 0.062,1.07 ± 0.016,1.06 ± 0.061
UniProt Q96K58 and related entries,1.1 ± 0.045,1.19 ± 0.044,1.11 ± 0.041,1.06 ± 0.065,1.03 ± 0.038,1.11 ± 0.061
DUS3L (UniProt Q96G46),1.02 ± 0.011,1.03 ± 0.017,1.02 ± 0.022,1.01 ± 0.035,0.99 ± 0.044,1.01 ± 0.052
UniProt Q96JG8 and related entries,1.01 ± 0.04,0.992 ± 0.053,0.991 ± 0.034,0.988 ± 0.044,1 ± 0.027,0.977 ± 0.031
UniProt Q969H8,0.9848 ± 0.0052,0.915 ± 0.067,0.971 ± 0.03,1 ± 0.062,1.06 ± 0.05,0.97 ± 0.088
UniProt Q96HA8 and related entries,0.979 ± 0.014,1.03 ± 0.043,1.03 ± 0.012,1.02 ± 0.029,1.03 ± 0.029,1.04 ± 0.045
UniProt Q96JG6,0.991 ± 0.034,0.988 ± 0.019,0.987 ± 0.014,0.9941 ± 0.0023,0.9741 ± 0.0084,0.978 ± 0.026

# Copied from the list:
# Value of CCDC51 (UniProt Q96ER9) under NP40-soluble protein abundance (concentration: 8mM): 0.981 ± 0.02
# Value of UniProt Q969H8 under NP40-soluble protein abundance (concentration: 4mM): 0.971 ± 0.03
